Test results: the supplement of paper PMC6411743
± gives the standard deviation of the averaged measurements. Only a part is listed here, and it is no random draw.

Protein sequences, listed by entry. Tags and fused reporters are not part of them. Lines headed by an entry give the natural chain unless they say otherwise; changes in a name come on top.
UniProt P23511, whole entry: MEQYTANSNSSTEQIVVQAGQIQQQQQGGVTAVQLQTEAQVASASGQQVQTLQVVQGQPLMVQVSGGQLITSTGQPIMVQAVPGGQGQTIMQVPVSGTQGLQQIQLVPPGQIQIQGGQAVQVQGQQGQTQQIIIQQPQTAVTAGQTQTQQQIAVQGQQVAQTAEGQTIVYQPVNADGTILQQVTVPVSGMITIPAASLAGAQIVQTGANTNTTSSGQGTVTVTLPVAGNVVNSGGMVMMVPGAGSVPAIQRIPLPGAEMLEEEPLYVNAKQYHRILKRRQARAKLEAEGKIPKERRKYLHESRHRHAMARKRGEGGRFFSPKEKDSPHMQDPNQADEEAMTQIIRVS
UniProt P23526: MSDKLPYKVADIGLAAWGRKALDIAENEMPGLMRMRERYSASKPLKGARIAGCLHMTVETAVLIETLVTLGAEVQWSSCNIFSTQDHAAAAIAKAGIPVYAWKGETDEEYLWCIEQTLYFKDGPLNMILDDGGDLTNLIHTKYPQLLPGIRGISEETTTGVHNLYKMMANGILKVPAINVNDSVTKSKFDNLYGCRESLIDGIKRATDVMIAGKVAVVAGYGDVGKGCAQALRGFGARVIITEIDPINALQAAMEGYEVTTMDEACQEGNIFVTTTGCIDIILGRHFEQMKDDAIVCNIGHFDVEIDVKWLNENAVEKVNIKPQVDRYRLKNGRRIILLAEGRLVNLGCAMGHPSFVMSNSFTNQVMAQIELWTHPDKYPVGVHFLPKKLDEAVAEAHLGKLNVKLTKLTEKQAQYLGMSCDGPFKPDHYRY
UniProt P30281: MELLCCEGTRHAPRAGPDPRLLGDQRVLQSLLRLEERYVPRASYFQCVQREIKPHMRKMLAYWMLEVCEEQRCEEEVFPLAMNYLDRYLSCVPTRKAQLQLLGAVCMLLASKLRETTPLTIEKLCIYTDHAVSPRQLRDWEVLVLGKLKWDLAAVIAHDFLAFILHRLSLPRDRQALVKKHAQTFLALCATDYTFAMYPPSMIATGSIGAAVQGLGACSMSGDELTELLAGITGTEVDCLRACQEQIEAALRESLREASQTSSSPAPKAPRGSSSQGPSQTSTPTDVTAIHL
UniProt P32119: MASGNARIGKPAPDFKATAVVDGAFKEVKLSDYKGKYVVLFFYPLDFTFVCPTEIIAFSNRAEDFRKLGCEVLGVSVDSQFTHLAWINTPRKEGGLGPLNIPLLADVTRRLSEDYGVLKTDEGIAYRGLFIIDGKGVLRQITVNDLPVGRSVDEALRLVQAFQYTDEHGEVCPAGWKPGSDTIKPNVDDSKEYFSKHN
UniProt P36915, whole entry: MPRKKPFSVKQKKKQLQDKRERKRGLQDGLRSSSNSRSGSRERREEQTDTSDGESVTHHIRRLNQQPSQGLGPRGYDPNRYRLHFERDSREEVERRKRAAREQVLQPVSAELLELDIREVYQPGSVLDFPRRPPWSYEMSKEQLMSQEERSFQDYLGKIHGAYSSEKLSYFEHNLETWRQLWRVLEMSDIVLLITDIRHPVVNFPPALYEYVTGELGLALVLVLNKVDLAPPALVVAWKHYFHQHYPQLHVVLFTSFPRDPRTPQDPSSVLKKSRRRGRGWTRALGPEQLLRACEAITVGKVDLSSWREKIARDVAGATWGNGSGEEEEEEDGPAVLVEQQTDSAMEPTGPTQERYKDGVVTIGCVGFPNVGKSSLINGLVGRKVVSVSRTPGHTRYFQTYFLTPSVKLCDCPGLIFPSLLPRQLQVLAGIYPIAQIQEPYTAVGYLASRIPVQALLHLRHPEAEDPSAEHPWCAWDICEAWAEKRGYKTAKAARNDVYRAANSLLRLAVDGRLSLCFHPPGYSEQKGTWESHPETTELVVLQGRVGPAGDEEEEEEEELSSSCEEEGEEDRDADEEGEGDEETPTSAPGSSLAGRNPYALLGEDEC
UniProt P23497: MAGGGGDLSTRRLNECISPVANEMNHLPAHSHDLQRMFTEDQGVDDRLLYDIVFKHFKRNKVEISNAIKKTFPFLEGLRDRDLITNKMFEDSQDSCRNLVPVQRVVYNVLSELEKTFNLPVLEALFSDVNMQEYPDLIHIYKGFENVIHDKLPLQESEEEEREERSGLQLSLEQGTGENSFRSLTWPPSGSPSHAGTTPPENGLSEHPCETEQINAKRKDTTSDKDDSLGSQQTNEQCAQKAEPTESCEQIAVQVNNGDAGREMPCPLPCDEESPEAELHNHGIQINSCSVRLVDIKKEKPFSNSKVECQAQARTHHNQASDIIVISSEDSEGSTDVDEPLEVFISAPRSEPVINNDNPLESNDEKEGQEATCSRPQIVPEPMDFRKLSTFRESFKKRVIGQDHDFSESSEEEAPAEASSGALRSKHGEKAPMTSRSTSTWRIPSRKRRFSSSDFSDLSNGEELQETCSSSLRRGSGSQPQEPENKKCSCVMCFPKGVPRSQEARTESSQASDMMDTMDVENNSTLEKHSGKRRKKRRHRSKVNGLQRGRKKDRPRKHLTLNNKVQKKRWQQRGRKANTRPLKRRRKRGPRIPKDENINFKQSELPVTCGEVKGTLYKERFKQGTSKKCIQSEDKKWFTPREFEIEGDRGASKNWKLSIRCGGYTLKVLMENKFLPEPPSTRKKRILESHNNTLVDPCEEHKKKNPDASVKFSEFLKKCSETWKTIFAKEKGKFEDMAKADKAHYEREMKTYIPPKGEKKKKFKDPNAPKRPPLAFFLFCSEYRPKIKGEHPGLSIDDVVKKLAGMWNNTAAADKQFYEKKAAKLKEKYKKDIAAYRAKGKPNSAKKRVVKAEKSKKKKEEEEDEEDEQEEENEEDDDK
UniProt P23258, whole entry: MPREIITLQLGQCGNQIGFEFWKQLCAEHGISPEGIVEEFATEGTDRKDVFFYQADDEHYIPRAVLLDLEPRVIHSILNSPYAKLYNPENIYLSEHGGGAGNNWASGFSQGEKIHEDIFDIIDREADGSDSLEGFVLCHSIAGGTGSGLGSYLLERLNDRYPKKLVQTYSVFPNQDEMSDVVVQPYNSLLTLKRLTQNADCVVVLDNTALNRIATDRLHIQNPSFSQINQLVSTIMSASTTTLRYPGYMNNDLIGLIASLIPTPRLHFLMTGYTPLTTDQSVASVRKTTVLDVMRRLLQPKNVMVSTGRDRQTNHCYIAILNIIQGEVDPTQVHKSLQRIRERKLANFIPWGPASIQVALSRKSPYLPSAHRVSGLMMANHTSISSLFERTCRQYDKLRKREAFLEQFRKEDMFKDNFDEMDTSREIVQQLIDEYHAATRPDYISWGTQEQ
UniProt P17568, whole entry: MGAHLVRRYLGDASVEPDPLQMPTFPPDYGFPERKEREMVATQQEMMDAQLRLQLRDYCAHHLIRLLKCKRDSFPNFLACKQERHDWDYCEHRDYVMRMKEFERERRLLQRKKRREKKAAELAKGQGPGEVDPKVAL
UniProt P35219: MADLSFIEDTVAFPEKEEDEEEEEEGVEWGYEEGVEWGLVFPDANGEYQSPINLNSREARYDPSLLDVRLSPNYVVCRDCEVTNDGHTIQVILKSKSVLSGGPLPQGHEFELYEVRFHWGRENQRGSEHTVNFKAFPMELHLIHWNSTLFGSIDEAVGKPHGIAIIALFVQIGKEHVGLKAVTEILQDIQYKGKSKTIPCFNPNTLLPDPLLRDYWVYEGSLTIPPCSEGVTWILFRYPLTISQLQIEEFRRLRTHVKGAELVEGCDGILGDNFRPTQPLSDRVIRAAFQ
UniProt P31939: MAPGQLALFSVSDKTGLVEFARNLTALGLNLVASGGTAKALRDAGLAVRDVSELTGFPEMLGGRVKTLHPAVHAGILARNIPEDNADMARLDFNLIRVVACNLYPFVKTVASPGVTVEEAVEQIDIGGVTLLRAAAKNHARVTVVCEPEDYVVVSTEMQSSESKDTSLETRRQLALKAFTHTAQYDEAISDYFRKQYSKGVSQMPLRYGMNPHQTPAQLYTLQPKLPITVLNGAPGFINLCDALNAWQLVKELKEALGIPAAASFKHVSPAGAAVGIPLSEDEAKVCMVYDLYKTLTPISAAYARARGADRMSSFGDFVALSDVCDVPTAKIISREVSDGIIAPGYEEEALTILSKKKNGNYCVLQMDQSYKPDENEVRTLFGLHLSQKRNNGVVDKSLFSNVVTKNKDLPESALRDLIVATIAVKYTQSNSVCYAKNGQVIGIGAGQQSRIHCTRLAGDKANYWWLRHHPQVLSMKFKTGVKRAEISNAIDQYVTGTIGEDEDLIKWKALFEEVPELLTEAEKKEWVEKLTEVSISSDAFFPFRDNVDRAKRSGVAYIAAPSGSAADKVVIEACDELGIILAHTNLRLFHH
UniProt P28907, whole entry: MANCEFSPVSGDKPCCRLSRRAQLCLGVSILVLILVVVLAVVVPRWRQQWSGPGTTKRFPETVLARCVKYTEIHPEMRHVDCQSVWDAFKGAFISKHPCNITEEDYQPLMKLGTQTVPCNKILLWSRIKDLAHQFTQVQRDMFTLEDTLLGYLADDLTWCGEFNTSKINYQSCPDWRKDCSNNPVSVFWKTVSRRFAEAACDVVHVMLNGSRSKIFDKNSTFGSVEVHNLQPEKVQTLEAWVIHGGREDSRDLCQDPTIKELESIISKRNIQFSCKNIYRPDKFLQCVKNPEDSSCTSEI
UniProt P19532: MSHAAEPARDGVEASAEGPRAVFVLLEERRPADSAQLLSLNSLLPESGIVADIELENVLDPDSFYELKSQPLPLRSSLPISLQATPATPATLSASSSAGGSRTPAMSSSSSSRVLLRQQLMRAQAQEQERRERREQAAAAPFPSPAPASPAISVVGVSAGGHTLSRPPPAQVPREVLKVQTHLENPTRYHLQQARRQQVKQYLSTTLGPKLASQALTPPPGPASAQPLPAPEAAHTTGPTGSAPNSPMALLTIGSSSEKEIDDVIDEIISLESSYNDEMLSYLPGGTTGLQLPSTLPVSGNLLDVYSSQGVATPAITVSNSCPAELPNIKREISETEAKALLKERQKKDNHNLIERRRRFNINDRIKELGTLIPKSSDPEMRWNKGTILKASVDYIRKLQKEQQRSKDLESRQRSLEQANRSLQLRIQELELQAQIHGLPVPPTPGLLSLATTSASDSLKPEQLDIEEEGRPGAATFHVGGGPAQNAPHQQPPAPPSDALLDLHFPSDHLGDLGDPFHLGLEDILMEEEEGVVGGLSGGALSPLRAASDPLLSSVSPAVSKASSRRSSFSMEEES
UniProt P17152: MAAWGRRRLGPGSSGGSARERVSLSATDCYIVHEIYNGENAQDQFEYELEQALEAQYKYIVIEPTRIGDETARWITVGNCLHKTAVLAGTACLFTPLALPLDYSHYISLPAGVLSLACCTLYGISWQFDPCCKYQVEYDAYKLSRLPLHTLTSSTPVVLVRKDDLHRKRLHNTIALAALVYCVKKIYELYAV
UniProt P28908: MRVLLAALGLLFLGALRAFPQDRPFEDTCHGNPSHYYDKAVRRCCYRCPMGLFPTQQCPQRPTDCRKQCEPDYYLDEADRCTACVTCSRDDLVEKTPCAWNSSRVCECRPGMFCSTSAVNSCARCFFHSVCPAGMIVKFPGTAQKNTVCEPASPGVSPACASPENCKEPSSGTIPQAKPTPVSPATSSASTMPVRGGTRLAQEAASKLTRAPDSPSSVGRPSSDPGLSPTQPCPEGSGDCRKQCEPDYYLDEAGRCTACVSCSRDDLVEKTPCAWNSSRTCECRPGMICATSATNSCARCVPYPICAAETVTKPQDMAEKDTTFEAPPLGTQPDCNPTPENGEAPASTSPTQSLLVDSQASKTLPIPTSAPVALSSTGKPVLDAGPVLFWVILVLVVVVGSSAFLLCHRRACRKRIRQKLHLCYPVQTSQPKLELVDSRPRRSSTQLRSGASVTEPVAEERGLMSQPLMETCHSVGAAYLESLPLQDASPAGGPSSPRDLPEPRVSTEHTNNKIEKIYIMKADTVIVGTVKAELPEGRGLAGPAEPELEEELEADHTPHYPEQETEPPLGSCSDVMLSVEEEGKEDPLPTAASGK

Compound: Nc1ncnc2c1ncn2[C@@H]1O[C@H](COP(=O)(O)OP(=O)(O)NP(=O)(O)O)[C@@H](O)[C@H]1O [adenylyl imidodiphosphate]
Experiment: NP40-soluble protein abundance relative to vehicle (solubility fold change) (ratio); higher = more soluble protein in presence of AMP-PNP
Outline: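 Jurkat crude lysate (Dounce-homogenised) was treated with eight concentrations from 0.1 to 10 mM for 10 min at room temperature, then 3 min at 37 °C. It was solubilised with 0.8% NP40 and benzonase (60 min, 4 °C) and ultracentrifuged, and the supernatant was TMT-labelled for LC-MS/MS. Intensities were vsn-normalised, and the value is the fold change against the NP40-processed vehicle per replicate, from three independent experiments.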

Row | Target | NP40-soluble protein abundance (concentration: 1mM) | NP40-soluble protein abundance (concentration: 2mM) | NP40-soluble protein abundance (concentration: 4mM) | NP40-soluble protein abundance (concentration: 6mM) | NP40-soluble protein abundance (concentration: 8mM) | NP40-soluble protein abundance (concentration: 10mM)
1 | TCEA1 (UniProt P23193) | 1.02 ± 0.016 | 1.04 ± 0.032 | 1.04 ± 0.018 | 1.03 ± 0.026 | 1.02 ± 0.026 | 1.04 ± 0.064
2 | PIK3R1 (UniProt P27986) | 1.03 ± 0.023 | 1.01 ± 0.027 | 1.03 ± 0.046 | 0.955 ± 0.021 | 0.966 ± 0.013 | 0.952 ± 0.015
3 | MYH10 (UniProt P35580) | 1.16 ± 0.11 | 1.24 ± 0.11 | 1.18 ± 0.15 | 1.17 ± 0.15 | 1.12 ± 0.15 | 1.17 ± 0.19
4 | RAB3B (UniProt P20337) | 0.996 ± 0.021 | 1.02 ± 0.05 | 1 ± 0.019 | 0.976 ± 0.03 | 0.992 ± 0.052 | 0.958 ± 0.02
5 | GNA15 (UniProt P30679) | 0.942 ± 0.051 | 0.943 ± 0.029 | 0.947 ± 0.022 | 0.981 ± 0.043 | 0.956 ± 0.06 | 0.965 ± 0.021
6 | MAN1A1 (UniProt P33908) | 0.946 ± 0.013 | 0.968 ± 0.049 | 0.976 ± 0.025 | 0.943 ± 0.03 | 0.97 ± 0.039 | 0.929 ± 0.021
7 | UniProt P17252 | 1.05 ± 0.022 | 1.05 ± 0.053 | 1.02 ± 0.079 | 1.04 ± 0.032 | 1.03 ± 0.071 | 1.04 ± 0.11
8 | PSMB1 (UniProt P20618) | 0.959 ± 0.032 | 0.934 ± 0.059 | 0.927 ± 0.079 | 0.906 ± 0.094 | 0.904 ± 0.086 | 0.873 ± 0.1
9 | UniProt P33981 and related entries | 1.04 ± 0.027 | 1.021 ± 0.0069 | 1.05 ± 0.033 | 1.018 ± 0.01 | 1.02 ± 0.034 | 1.03 ± 0.036
10 | UniProt P34897 and related entries | 0.972 ± 0.033 | 0.94 ± 0.012 | 0.994 ± 0.043 | 1.04 ± 0.059 | 1.06 ± 0.037 | 1.03 ± 0.029
11 | RFC4 (UniProt P35249) | 1.05 ± 0.051 | 1.08 ± 0.014 | 1.09 ± 0.06 | 1.14 ± 0.043 | 1.16 ± 0.082 | 1.2 ± 0.075
12 | UniProt P23511 and related entries | 0.944 ± 0.036 | 1.1 ± 0.29 | 0.917 ± 0.029 | 0.985 ± 0.092 | 0.97 ± 0.058 | 0.953 ± 0.055
13 | PTPN1 (UniProt P18031) | 0.9727 ± 0.0064 | 0.971 ± 0.01 | 0.964 ± 0.016 | 0.9604 ± 0.0079 | 0.95 ± 0.026 | 0.954 ± 0.038
14 | ALDH4A1 (UniProt P30038) | 0.99 ± 0.028 | 1.02 ± 0.016 | 0.977 ± 0.033 | 0.975 ± 0.023 | 0.938 ± 0.013 | 0.954 ± 0.02
15 | UniProt P17812 | 0.932 ± 0.03 | 0.873 ± 0.06 | 0.91 ± 0.033 | 0.96 ± 0.077 | 0.97 ± 0.04 | 0.924 ± 0.044
16 | CD53 (UniProt P19397) | 0.999 ± 0.051 | 1.02 ± 0.1 | 0.964 ± 0.093 | 1.06 ± 0.12 | 1.06 ± 0.12 | 1.03 ± 0.1
17 | AHCY (UniProt P23526) | 0.965 ± 0.027 | 0.878 ± 0.12 | 0.952 ± 0.025 | 1 ± 0.039 | 1.03 ± 0.025 | 0.954 ± 0.023
18 | UniProt P30281 and related entries | 0.988 ± 0.023 | 0.92 ± 0.035 | 0.982 ± 0.023 | 0.979 ± 0.038 | 1.02 ± 0.012 | 0.98 ± 0.042
19 | PRDX2 (UniProt P32119) | 0.966 ± 0.022 | 0.918 ± 0.027 | 0.91 ± 0.028 | 0.966 ± 0.032 | 0.947 ± 0.022 | 0.915 ± 0.031
20 | GNL1 (UniProt P36915) | 0.987 ± 0.055 | 0.946 ± 0.017 | 0.987 ± 0.049 | 1 ± 0.048 | 1.03 ± 0.036 | 1.02 ± 0.034
21 | UniProt P18433 and related entries | 1.029 ± 0.0089 | 1.03 ± 0.027 | 1.03 ± 0.032 | 0.987 ± 0.023 | 1.02 ± 0.018 | 1.03 ± 0.036
22 | SP100 (UniProt P23497) | 0.997 ± 0.029 | 1.03 ± 0.059 | 0.996 ± 0.039 | 0.968 ± 0.041 | 0.942 ± 0.024 | 0.962 ± 0.049
23 | TUBG1 (UniProt P23258) | 0.994 ± 0.097 | 0.969 ± 0.13 | 0.998 ± 0.095 | 1.03 ± 0.12 | 1.02 ± 0.11 | 1.07 ± 0.18

Single records, from the list above.
MAN1A1 (UniProt P33908) in the list: NP40-soluble protein abundance (concentration: 1mM): 0.946 ± 0.013; NP40-soluble protein abundance (concentration: 2mM): 0.968 ± 0.049; NP40-soluble protein abundance (concentration: 4mM): 0.976 ± 0.025; NP40-soluble protein abundance (concentration: 6mM): 0.943 ± 0.03; NP40-soluble protein abundance (concentration: 8mM): 0.97 ± 0.039; NP40-soluble protein abundance (concentration: 10mM): 0.929 ± 0.021
GNA15 (UniProt P30679) in the list: NP40-soluble protein abundance (concentration: 1mM): 0.942 ± 0.051; NP40-soluble protein abundance (concentration: 2mM): 0.943 ± 0.029; NP40-soluble protein abundance (concentration: 4mM): 0.947 ± 0.022; NP40-soluble protein abundance (concentration: 6mM): 0.981 ± 0.043; NP40-soluble protein abundance (concentration: 8mM): 0.956 ± 0.06; NP40-soluble protein abundance (concentration: 10mM): 0.965 ± 0.021

More entries follow:

Row | Target | NP40-soluble protein abundance (concentration: 1mM) | NP40-soluble protein abundance (concentration: 2mM) | NP40-soluble protein abundance (concentration: 4mM) | NP40-soluble protein abundance (concentration: 6mM) | NP40-soluble protein abundance (concentration: 8mM) | NP40-soluble protein abundance (concentration: 10mM)
24 | UniProt P30044 and related entries | 0.994 ± 0.015 | 1.02 ± 0.048 | 0.985 ± 0.019 | 1.01 ± 0.034 | 0.999 ± 0.021 | 1.01 ± 0.043
25 | NDUFB7 (UniProt P17568) | 1.01 ± 0.026 | 1.07 ± 0.13 | 1 ± 0.062 | 1.08 ± 0.067 | 1.11 ± 0.068 | 1.09 ± 0.046
26 | POLR2E (UniProt P19388) | 0.967 ± 0.035 | 0.937 ± 0.058 | 0.987 ± 0.032 | 0.992 ± 0.013 | 1.03 ± 0.024 | 1 ± 0.068
27 | UniProt P29401 and related entries | 0.9787 ± 0.0092 | 0.941 ± 0.046 | 0.943 ± 0.018 | 0.978 ± 0.022 | 0.966 ± 0.027 | 0.957 ± 0.023
28 | UniProt P19784 | 0.962 ± 0.056 | 0.863 ± 0.086 | 0.969 ± 0.05 | 0.972 ± 0.063 | 1.06 ± 0.023 | 0.989 ± 0.078
29 | UniProt P38398 and related entries | 1.01 ± 0.03 | 1.08 ± 0.054 | 1.02 ± 0.022 | 0.993 ± 0.038 | 0.959 ± 0.018 | 1.02 ± 0.014
30 | UniProt P35251 and related entries | 1.07 ± 0.023 | 1.13 ± 0.051 | 1.13 ± 0.05 | 1.21 ± 0.052 | 1.18 ± 0.062 | 1.26 ± 0.038
31 | CA8 (UniProt P35219) | 0.998 ± 0.026 | 0.967 ± 0.06 | 0.973 ± 0.028 | 0.982 ± 0.035 | 1.03 ± 0.04 | 0.966 ± 0.033
32 | GTF2E1 (UniProt P29083) | 1.04 ± 0.021 | 1.1 ± 0.04 | 1.06 ± 0.016 | 1.05 ± 0.012 | 1.04 ± 0.035 | 1.07 ± 0.048
33 | UniProt P22001 | 0.979 ± 0.012 | 0.986 ± 0.021 | 1.01 ± 0.027 | 0.997 ± 0.039 | 0.99 ± 0.046 | 0.976 ± 0.013
34 | UniProt P26368 and related entries | 0.986 ± 0.075 | 1 ± 0.025 | 1.11 ± 0.069 | 1.24 ± 0.098 | 1.41 ± 0.09 | 1.51 ± 0.12
35 | ATIC (UniProt P31939) | 1.01 ± 0.015 | 0.99 ± 0.057 | 1.016 ± 0.0081 | 1.01 ± 0.034 | 1.01 ± 0.026 | 1.03 ± 0.05
36 | UniProt P30203 and related entries | 1.024 ± 0.0096 | 1.01 ± 0.047 | 1.01 ± 0.012 | 1.01 ± 0.038 | 1.02 ± 0.026 | 1.02 ± 0.014
37 | ATP6V1B2 (UniProt P21281) | 1.01 ± 0.047 | 1 ± 0.042 | 0.971 ± 0.019 | 0.969 ± 0.064 | 0.94 ± 0.042 | 0.96 ± 0.069
38 | UniProt P28907 | 0.995 ± 0.015 | 1.06 ± 0.11 | 0.98 ± 0.034 | 1.01 ± 0.037 | 0.975 ± 0.019 | 0.978 ± 0.069
39 | UniProt P20340-2 | 1.02 ± 0.031 | 0.958 ± 0.049 | 0.991 ± 0.053 | 0.995 ± 0.049 | 1.01 ± 0.016 | 1.01 ± 0.068
40 | POLR2C (UniProt P19387) | 0.976 ± 0.022 | 0.95 ± 0.058 | 0.941 ± 0.042 | 0.905 ± 0.062 | 0.882 ± 0.04 | 0.908 ± 0.065
41 | KIF5B (UniProt P33176) | 1.02 ± 0.023 | 1.05 ± 0.067 | 0.9984 ± 0.0049 | 1 ± 0.03 | 0.978 ± 0.027 | 0.985 ± 0.037
42 | TFE3 (UniProt P19532) | 1.05 ± 0.048 | 1.05 ± 0.064 | 1.03 ± 0.021 | 1.05 ± 0.09 | 1.03 ± 0.039 | 1.05 ± 0.035
43 | UniProt P36639 and related entries | 1 ± 0.037 | 0.988 ± 0.059 | 1.09 ± 0.085 | 1.03 ± 0.022 | 1.07 ± 0.012 | 1.06 ± 0.065
44 | TMEM11 (UniProt P17152) | 0.943 ± 0.042 | 0.883 ± 0.09 | 0.947 ± 0.02 | 0.931 ± 0.015 | 0.94 ± 0.037 | 0.908 ± 0.039
45 | UniProt P28908 and related entries | 0.998 ± 0.018 | 1.03 ± 0.071 | 0.988 ± 0.025 | 0.991 ± 0.036 | 0.9962 ± 0.004 | 1 ± 0.013
